# Experimental data published in PubChem BioAssay AID445 (National Center for Advancing Translational Sciences (NCATS), 2006).
# The list shows a part of the results. Further columns of the screen follow, without active or inactive calls. Compounds called inactive in the main read-out are mostly missing here. Words in brackets tell the shape of the fitted curve; partial curves, single points and poor fits give uncertain potencies.
# Assay: IkB Signaling
# Settings: ABC-DLBCL IkBa-CBG/CBR dual luciferase ratio (green luciferase fused to IkBa over red control in OCI-Ly3 lymphoma cells), 4 h; measured here: control luc red channel unless noted
# Method in brief: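 Curves were fitted separately to fusion (green), unfused (red) and ratio luminescence, then classed by r2, magnitude and activity. Cells: OCI-Ly3, 4 h compound plus doxycycline at 37C; 10 uM MG-132 defined full response.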
row,SMILES,AC50
1,CCn1c(C(=O)NCc2ccc(OC(C)C)cc2)cc2oc3ccccc3c21,"10 µM [falling, partial curve]"
2,Cc1cccc(N2C(=O)C(CC(=O)Nc3ccc(Cl)cc3)N(Cc3ccco3)C2=O)c1 (stereo not given),"25.1 µM [falling, partial curve]"
3,Cc1oc(-c2cccc(Cl)c2)nc1CS(=O)(=O)CC(=O)NCc1ccccc1Cl,"25.1 µM [falling, partial curve]"
4,Cc1ccc2c(c1)c(=O)c1ccccc1n2CCCC(=O)Nc1cc(Cl)ccc1C,"5.01 µM [falling, full curve]"
5,Cc1oc2ccc(O)c(CN3CCN(C)CC3)c2c1C(=O)Nc1cccc(Cl)c1C,"31.6 µM [falling, single point]"
6,COc1ccccc1NC(=O)c1cc(S(=O)(=O)N2CCN(c3ccccc3Cl)CC2)ccc1F,"3.16 µM [falling, full curve]"
7,O=C(CN1CCN(c2nc(-c3ccccc3)cs2)CC1)NCc1ccc2c(c1)OCO2,"25.1 µM [falling, partial curve]"
8,CCOC(=O)N1CCN(c2ccc(C(=O)c3ccccc3)cc2F)CC1,"15.8 µM [falling, partial curve]"
9,Cc1ccccc1Cn1c2ccccc2c2cnn(CC(=O)NC(C)CCc3ccccc3)c(=O)c21 (stereo not given),"10 µM [falling, partial curve]"
10,CCc1ccc2oc(C(=O)Nc3c(C)n(C)n(-c4ccccc4)c3=O)cc(=O)c2c1,"0.0158 µM [rising, full curve, poor fit]"
11,COC(=O)c1ccc(NC(=O)CN(CCc2ccccc2)S(=O)(=O)c2ccc(OC)cc2)cc1,"7.94 µM [falling, full curve, poor fit]"
12,CN(Cc1ccccc1)C(=O)CCCn1c(=O)[nH]c2cc(Cl)ccc2c1=O,"12.6 µM [falling, partial curve]"
13,COc1cccc(-c2nc3cc(C)ccc3o2)c1,"20 µM [falling, single point]"
14,CCN1CCN(c2cc(C)c3cc(NC(=O)c4cccc(Cl)c4)ccc3n2)CC1,"15.8 µM [falling, partial curve]"
15,COc1ccc(C(=O)Nc2ccc(C)cn2)c(OC)c1,"10 µM [falling, partial curve]"
16,Cc1ccc(NC(=O)c2cnc(N3CCCCC3)c3ccccc23)cc1Cl,"10 µM [falling, partial curve]"
17,COC(=O)c1scc(-c2ccc(C)cc2)c1S(=O)(=O)Nc1cccc(Cl)c1C,"15.8 µM [falling, single point]"
18,Cc1ccc(OCCn2cc(C(=O)c3ccco3)c3ccccc32)cc1C,"2.51 µM [falling, partial curve]"
19,O=C(CCCCn1c(=O)c2ccccc2n(CC(=O)Nc2ccccc2)c1=O)NCc1ccccc1Cl,"2.51 µM [falling, full curve, poor fit]"
20,CCN(CC)CCCNC(=O)C1CCN(S(C)(=O)=O)CC1,"7.94 µM [rising, single point]"

row,SMILES,AC50
1,O=C1C(Cl)=C(Nc2ccccc2O)C(=O)N1c1ccccc1,"0.0158 µM [falling, full curve]"
2,Cc1oc(-c2ccc(C(=O)Nc3cccc(C(F)(F)F)c3)cc2)nc1CSc1ccccc1,"10 µM [falling, partial curve]"
3,COc1ccc(-c2c(C#N)c(SCC(=O)Nc3ccc(Br)cc3)nc(C)c2C(=O)Nc2ccccc2)cc1,"3.16 µM [falling, full curve, poor fit]"
4,O=C(CN(c1cc(C(F)(F)F)ccc1Cl)S(=O)(=O)c1ccccc1)NCCc1ccccc1,"25.1 µM [falling, partial curve]"
5,COC(=O)c1ccccc1NC(=O)c1cc2c(s1)-c1ccccc1OC2,"0.398 µM [falling, full curve]"
6,O=C(CSc1nc(-c2ccccc2)c2ccccc2n1)Nc1ccc(F)cc1,"1.58 µM [falling, full curve, poor fit]"
7,COc1cc(C(=O)Nc2nccs2)ccc1OCc1c(C)noc1C,"31.6 µM [falling, partial curve]"
8,Cc1cc(C)c(S(=O)(=O)NCCc2cc3ccc(C)cc3[nH]c2=O)c(C)c1,"12.6 µM [falling, partial curve]"
9,CC1=C(C(=O)N2CCCCC2)C(c2cccc(Cl)c2)n2c(nc3ccccc32)N1 (stereo not given),"39.8 µM [falling, single point]"
10,O=C(CCCc1nc(-c2ccccc2)no1)Nc1cc(C(F)(F)F)cc(C(F)(F)F)c1,"25.1 µM [falling, partial curve]"
11,Cc1ccc(-c2cc(-c3ccccc3Cl)[nH]n2)c(O)c1,"15.8 µM [falling, partial curve]"
12,O=C(Nc1nnc(S(=O)(=O)N2CCCCC2)s1)c1ccc(F)cc1,"10 µM [rising, partial curve, poor fit]"
13,Cc1sc(-n2cccc2)c(C(C)NC(=O)Nc2ccccc2Cl)c1C (stereo not given),"15.8 µM [falling, partial curve]"
14,C=CCn1c(Cc2cccs2)nnc1SCC(=O)Nc1ccc(C(=O)OCC)cc1,"15.8 µM [falling, partial curve]"
15,Cc1cccc(-c2nc3scc(CCNS(=O)(=O)c4ccc(F)cc4C)n3n2)c1,"10 µM [falling, partial curve]"
16,Cc1ccc(NC(=O)c2cc(S(=O)(=O)NCCC3=CCCCC3)ccc2F)cc1C,"20 µM [falling, partial curve]"
17,CCc1ccc(NC(=O)c2sc3nc(C)c(C(=O)Nc4ccc(C)cc4C)c(-c4ccco4)c3c2N)cc1,"0.316 µM [falling, full curve]"
18,COc1ccc(Nc2sc(C(=O)c3ccccc3)c(N)c2C(=O)Nc2cc(C)ccc2C)c(OC)c1,"12.6 µM [falling, partial curve]"
19,Cc1ccc(Cl)cc1N(CC(=O)N1CCCCCC1)S(C)(=O)=O,"15.8 µM [falling, partial curve]"
20,Cc1c(NC(=O)c2cc(-c3ccc(Br)cc3)on2)c(=O)n(-c2ccccc2)n1C,"31.6 µM [falling, single point]"

# Three structures from above, sorted by number of heavy atoms, ascending:
row,SMILES,AC50
13,Cc1sc(-n2cccc2)c(C(C)NC(=O)Nc2ccccc2Cl)c1C (stereo not given),"15.8 µM [falling, partial curve]"
9,CC1=C(C(=O)N2CCCCC2)C(c2cccc(Cl)c2)n2c(nc3ccccc32)N1 (stereo not given),"39.8 µM [falling, single point]"
10,O=C(CCCc1nc(-c2ccccc2)no1)Nc1cc(C(F)(F)F)cc(C(F)(F)F)c1,"25.1 µM [falling, partial curve]"
